The experiment in a line: qHTS Assay for Lipid Storage Modulators in Drosophila S3 Cells.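 On cell number change: cells counted by Cell Tracker Red CMTPX staining in the red channel.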 The note with it: BODIPY lipid droplet fluorescence, 18-24 h; for cell number change: measured here: cell count max response, cells fed with added oleic acid. In short, it runs like this:
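Drosophila S3 cells got compounds at several concentrations plus oleic acid (400 uM solution). Laser-scanning cytometry with 488 nm excitation read lipid droplets at 500-530 nm and cells at 575-640 nm. Percent activity was relative to 20 uM Triacsin C.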

Where [1] appears, read: measured here: lipid fluorescence (Fed channel) AC50, cells fed with added oleic acid.
Where [2] appears, read: measured here: cell number channel AC50, cells fed with added oleic acid.

This is one part of the list. These are further read-outs of the screen, such as a control signal, another cell line or another target. No call is given for them. Compounds called inactive in the main read-out are mostly missing here. Words in brackets tell the shape of the fitted curve; partial curves, single points and poor fits give uncertain potencies.

Turning to `Cc1ccc(C)n1-c1ccc(N2CCOCC2)nc1`, the cell number change was -3.37%.
As for `CCN1CCN(C2CCCCC2NS(=O)(=O)c2ccc(Cl)cc2)CC1` (stereo unspecified), the cell number change is 11.3%. Under setting [1], the AC50 was 4.11 µM [rising, full curve].
For `CCOC(=O)c1cc(C(C)C)sc1NC(=O)COC(=O)c1nccnc1N`, the cell number change was -7.13%. Moreover, the AC50 under setting [1] was 29.1 µM [falling, single point].
As for `NS(=O)(=O)c1cccc(NC(=O)COC(=O)CCCc2c[nH]c3ccccc23)c1`, under setting [1], the AC50 is 6.51 µM [falling, single point].
As to `COc1ccc(C(=O)NNC2CC(=O)N(Cc3ccccc3)C2=O)cc1OC` (stereo unspecified), the cell number change stood at 8.56%. Moreover, the concentration at half-maximal activity (AC50) under setting [1] was 0.291 µM [rising, full curve, poor fit].
`Cc1cccn2c(=O)c3cc(C(=O)NCCCn4ccnc4)n(C)c3nc12`: the cell number change was determined as 7.81%. For the same molecule, the AC50 under setting [1] was 0.82 µM [rising, full curve, poor fit].
Take `O=C(Nc1cccc(Br)c1)c1ccc(OC2CSC2)cc1`: the cell number change was 10.4%.
For `Cc1ccc(/C=N/n2c(COc3ccccc3)n[nH]c2=S)o1`, the cell number change is -40.8%. Besides, the concentration at half-maximal activity (AC50) under setting [2] is 3.66 µM [falling, full curve, poor fit]. Further, the concentration at half-maximal activity (AC50) under setting [1] was 4.11 µM [falling, full curve, poor fit].
With `Cc1ccc(-c2cc3cccc[n+]3cc2-c2ccc(C)cc2)cc1`, the cell number change was -78%. Further, the half-maximal activity concentration (AC50) under setting [2] was 16.4 µM [falling, single point]. Moreover, the AC50 under setting [1] is 18.4 µM [falling, single point].
On to `COc1ccccc1N(C)C(=O)c1cc(S(=O)(=O)N2CCc3ccccc32)cn1C`, for which the cell number change was -11%. Also, the half-maximal activity concentration (AC50) under setting [1] is 14.6 µM [falling, partial curve].
`Cc1ccnc(SCCn2c(N3CCN(Cc4ccccc4)CC3)nc3c2c(=O)[nH]c(=O)n3C)n1`: the cell number change was 10.7%.
`O=C(O)c1ccc(Cn2cc(/C=C\[N+](=O)[O-])c3ccccc32)o1`: the cell number change was -13.2%.
Same read-out and setting: the result for `COc1ccc(-c2[nH]ncc2CN2CCCC(C(=O)c3cccc(OC)c3)C2)cc1` (stereo unspecified) reads 23.2%.
As to `CCOc1ccccc1NC(=O)C1CCN(S(=O)(=O)c2cccc3cccnc23)CC1`, the cell number change is -33.9%. The concentration at half-maximal activity (AC50) under setting [2] was 6.51 µM [falling, single point]. Under setting [1], the half-maximal activity concentration (AC50) is 6.51 µM [falling, single point].
As for `Cc1sc2nc(-c3cccnc3)[nH]c(=O)c2c1-c1ccccc1`, the cell number change is -25.3%. In addition, the AC50 under setting [1] is 29.1 µM [rising, single point].
Consider `CCCc1ccc(OCc2nc(-c3ccc(NC(=O)c4ccco4)cc3)no2)cc1`, for which the cell number change was -38%. In addition, the concentration at half-maximal activity (AC50) under setting [2] was 0.0259 µM [falling, partial curve].
As to `Cn1/c(=N/N=C/c2ccccn2)sc2ccccc21`, under setting [1], the AC50 is 3.26 µM [rising, partial curve].
As to `Cc1ccc(C(CCNC(C)c2cccs2)c2ccco2)cc1` (stereo unspecified), the cell number change is -38.7%. Further, the AC50 under setting [2] was 29.1 µM [falling, single point]. Further, the half-maximal activity concentration (AC50) under setting [1] was 18.4 µM [falling, single point].
Take `O=C(Nc1ccc(O)c2c(=O)cc(-c3ccccc3Cl)oc12)c1ccccc1Cl`: the cell number change stood at 11.8%. For the same molecule, the concentration at half-maximal activity (AC50) under setting [1] is 5.17 µM [rising, partial curve].
In the case of `Cc1ccc(-n2[nH]c(C)c(/C=N/c3cccc(C)n3)c2=O)cc1`, the cell number change came out at 20.7%. The concentration at half-maximal activity (AC50) under setting [1] is 32.6 µM [rising, partial curve, poor fit].
With `N#CCCn1cc(C(=O)CN2C(=O)C(=O)N(C3CCCC3)C2=O)c2ccccc21`, the cell number change turned out to be 1.2%.
Same read-out and setting: the result for `O=C(CN1CCOCC1)Nc1ccc([N+](=O)[O-])cc1` reads 2.07%.
As for `COc1cc(C(C(=O)NC2CCCCC2)N(C(=O)c2cnccn2)c2ccccc2)cc(OC)c1OC` (stereo unspecified), the cell number change came to 8.06%. Further, under setting [1], the AC50 is 0.731 µM [rising, full curve, poor fit].
For `CCOC(=O)CCC(=O)N1CCOCCOCCN(C(=O)CCC(=O)OCC)CCOCC1`, the cell number change is -100%. Also, the AC50 under setting [2] is 23.1 µM [falling, partial curve]. For the same molecule, the AC50 under setting [1] is 0.0731 µM [falling, full curve].
As to `O=C(COC(=O)C1(c2ccc(F)cc2)CCCC1)NCc1ccc2c(c1)OCO2`, the cell number change is -6.04%. The concentration at half-maximal activity (AC50) under setting [1] was 29.1 µM [falling, single point].
Take `COc1cc(NC(=O)C/C(C)=N/NC(=O)Cc2ccc(Cl)cc2)c(OC)cc1Cl`: the cell number change is 24.8%. Moreover, the concentration at half-maximal activity (AC50) under setting [1] was 1.84 µM [rising, partial curve].
On to `COc1ccccc1NC(=S)N(C(C)C)C(C)c1ccccn1` (stereo unspecified), for which the cell number change was -0.881%. Further, the AC50 under setting [2] was 0.13 µM [rising, full curve, poor fit]. Besides, under setting [1], the AC50 is 0.13 µM [rising, full curve, poor fit].
For the molecule `O=C(N[C@@H](Cc1ccccc1)C(=O)Nc1ccc(F)cc1)C1CCNCC1`, the cell number change is -18.1%. Further, the half-maximal activity concentration (AC50) under setting [1] is 0.146 µM [falling, full curve].
Regarding `COc1ccc(-c2cccc(C(=O)Nc3cccc(C(=O)O)c3)c2)cc1`, the cell number change was 23.3%.
As to `O=C(CSCc1ccccc1)N1CCN(c2ccccc2)CC1`, the cell number change worked out at 12%. The AC50 under setting [1] is 20.6 µM [rising, single point].
Turning to `CCCCCN1N=C(C)CC1=O`, the cell number change amounted to 6.49%.
Turning to `CCCCN(C1CCS(=O)(=O)C1)S(=O)(=O)c1cc(C)ccc1C` (stereo unspecified), the cell number change was -10.8%. In addition, the AC50 under setting [1] was 29.1 µM [falling, single point].
For the molecule `O=C(Oc1ccc(C(=S)N2CCOCC2)cc1)c1cccc(Cl)c1`, the cell number change is -2.2%. The AC50 under setting [1] is 29.1 µM [rising, single point].
With `Cc1ccccc1-c1n[nH]c(=S)o1`, the cell number change stood at 9.76%. The AC50 under setting [1] was 29.1 µM [rising, single point].
For the molecule `COc1ccc(NC(=O)CSC2=NN3CCCC(=O)N=C3S2)c(OC)c1`, the cell number change is 21.4%. The AC50 under setting [1] was 29.1 µM [rising, partial curve].
For the molecule `COc1ccc(C(=O)N(CCCO)C(C)C(=O)NC2CCCCC2)cc1OC` (stereo unspecified), the cell number change was -11.8%. The AC50 under setting [1] was 20.6 µM [falling, single point].
With `CCOc1ccc2nc(Cl)sc2c1`, the cell number change was -6.15%. Moreover, the AC50 under setting [1] was 0.00411 µM [falling, full curve, poor fit].
Regarding `O=C(O)CCn1c(SCc2ccccc2)nc2ccccc21`, the cell number change amounted to 50.8%. Further, under setting [2], the concentration at half-maximal activity (AC50) was 29.1 µM [rising, single point].
`CC(C)NC(=O)CSc1nnc(-c2ccco2)n1N`: the cell number change stood at 2.56%. Further, under setting [1], the half-maximal activity concentration (AC50) was 20.6 µM [falling, single point].
In the case of `CCCCC(O)(c1ccc(F)cc1)C(CN1CCOCC1)c1ccc(Cl)cc1` (stereo unspecified), the cell number change came to 36.9%. Under setting [2], the half-maximal activity concentration (AC50) was 3.66 µM [rising, partial curve, poor fit]. The AC50 under setting [1] was 11.6 µM [rising, single point].

The values are drawn from PubChem BioAssay AID2685 (National Center for Advancing Translational Sciences (NCATS), 2010).
